No constants are given. Whether binding was seen depends on the method and setting. Binding seen in cells or lysates may run through a third protein. These calls come from enrichment with a bait or labelling near it, and not all partners need be listed. Sequences can lack the tags named with a protein.

The chains behind the UniProt entries cited, without tags or fusion partners. Where a name states a change or a piece, a line headed by the entry shows the natural chain unless it says otherwise.
UniProt Q86DC2: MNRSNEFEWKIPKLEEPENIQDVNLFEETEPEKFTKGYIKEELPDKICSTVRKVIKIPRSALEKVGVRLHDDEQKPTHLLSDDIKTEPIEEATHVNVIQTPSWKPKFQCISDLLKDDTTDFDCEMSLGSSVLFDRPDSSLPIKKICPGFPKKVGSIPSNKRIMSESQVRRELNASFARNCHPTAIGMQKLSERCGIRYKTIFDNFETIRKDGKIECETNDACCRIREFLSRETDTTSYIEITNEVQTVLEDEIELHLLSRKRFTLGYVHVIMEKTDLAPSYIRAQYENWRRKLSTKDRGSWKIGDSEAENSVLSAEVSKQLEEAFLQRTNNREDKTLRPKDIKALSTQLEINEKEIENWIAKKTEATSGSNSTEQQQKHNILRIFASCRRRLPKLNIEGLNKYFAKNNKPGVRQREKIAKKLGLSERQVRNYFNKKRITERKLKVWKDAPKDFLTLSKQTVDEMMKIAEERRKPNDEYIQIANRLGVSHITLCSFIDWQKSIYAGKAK
UniProt O44400: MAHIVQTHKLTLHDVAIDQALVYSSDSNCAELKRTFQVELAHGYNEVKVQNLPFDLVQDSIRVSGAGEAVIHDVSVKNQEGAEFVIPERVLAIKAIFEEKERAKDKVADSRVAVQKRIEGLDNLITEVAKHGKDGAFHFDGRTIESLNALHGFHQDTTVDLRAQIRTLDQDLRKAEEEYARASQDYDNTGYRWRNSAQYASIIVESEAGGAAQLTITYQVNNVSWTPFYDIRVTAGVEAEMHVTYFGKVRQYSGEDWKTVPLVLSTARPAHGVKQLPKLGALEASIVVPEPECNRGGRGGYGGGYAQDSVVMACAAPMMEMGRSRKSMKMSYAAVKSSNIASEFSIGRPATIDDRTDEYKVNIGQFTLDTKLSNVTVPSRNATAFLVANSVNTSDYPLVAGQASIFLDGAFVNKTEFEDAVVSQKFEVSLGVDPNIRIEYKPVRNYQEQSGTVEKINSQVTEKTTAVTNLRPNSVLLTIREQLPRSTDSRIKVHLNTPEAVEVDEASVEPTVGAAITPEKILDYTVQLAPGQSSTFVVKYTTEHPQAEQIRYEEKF
UniProt Q23670: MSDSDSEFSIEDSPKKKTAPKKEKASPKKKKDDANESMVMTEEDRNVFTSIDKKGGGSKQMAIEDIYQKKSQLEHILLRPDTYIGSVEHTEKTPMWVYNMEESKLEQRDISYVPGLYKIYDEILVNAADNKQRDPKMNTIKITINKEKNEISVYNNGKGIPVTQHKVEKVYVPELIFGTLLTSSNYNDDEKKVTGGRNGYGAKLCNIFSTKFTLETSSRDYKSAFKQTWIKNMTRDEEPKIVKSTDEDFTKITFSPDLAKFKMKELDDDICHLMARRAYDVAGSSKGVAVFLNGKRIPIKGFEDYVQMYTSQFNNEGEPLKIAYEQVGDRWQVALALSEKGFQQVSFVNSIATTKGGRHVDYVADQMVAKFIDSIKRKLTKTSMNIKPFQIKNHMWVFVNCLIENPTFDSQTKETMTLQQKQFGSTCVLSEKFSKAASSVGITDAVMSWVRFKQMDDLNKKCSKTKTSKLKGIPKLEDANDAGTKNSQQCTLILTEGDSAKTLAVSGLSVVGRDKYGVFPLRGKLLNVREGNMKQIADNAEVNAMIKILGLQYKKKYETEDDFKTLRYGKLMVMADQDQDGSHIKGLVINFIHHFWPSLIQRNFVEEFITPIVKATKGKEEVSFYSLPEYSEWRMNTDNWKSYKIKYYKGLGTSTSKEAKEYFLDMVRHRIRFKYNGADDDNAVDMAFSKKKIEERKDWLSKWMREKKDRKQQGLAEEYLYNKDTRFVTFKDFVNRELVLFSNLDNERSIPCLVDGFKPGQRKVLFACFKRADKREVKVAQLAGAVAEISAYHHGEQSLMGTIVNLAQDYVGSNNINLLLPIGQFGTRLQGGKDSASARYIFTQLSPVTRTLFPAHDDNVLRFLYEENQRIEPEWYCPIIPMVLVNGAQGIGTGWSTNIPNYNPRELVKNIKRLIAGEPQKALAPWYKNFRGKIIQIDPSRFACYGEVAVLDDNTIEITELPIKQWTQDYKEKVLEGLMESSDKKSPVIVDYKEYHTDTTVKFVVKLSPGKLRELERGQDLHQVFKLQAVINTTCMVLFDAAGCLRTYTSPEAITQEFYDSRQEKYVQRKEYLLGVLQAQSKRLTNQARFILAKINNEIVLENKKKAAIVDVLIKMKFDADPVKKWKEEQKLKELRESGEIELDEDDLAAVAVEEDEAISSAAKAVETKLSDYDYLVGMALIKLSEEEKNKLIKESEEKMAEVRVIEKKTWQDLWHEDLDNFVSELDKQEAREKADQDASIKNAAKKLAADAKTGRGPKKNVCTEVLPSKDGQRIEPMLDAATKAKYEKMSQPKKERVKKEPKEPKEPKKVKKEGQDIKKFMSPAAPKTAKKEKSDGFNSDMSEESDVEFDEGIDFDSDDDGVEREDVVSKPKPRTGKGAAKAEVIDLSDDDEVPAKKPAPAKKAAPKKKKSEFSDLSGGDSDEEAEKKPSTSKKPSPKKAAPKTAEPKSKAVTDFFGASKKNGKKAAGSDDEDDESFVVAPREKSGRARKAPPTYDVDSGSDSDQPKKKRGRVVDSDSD

In the assay the target is T1, Flag-tagged GFP::NMAD-1 fusion protein (gfp::3xflag::nmad-1 transgene) (C. elegans) (UniProt Q8MNT9).
T1 sequence: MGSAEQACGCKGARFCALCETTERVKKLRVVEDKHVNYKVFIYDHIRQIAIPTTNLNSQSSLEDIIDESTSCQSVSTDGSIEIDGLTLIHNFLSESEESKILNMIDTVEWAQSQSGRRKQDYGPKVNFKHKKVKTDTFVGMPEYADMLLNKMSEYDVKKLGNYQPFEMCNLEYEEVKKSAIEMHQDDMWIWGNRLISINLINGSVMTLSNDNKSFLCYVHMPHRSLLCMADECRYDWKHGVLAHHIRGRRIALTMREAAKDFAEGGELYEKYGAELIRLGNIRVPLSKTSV
Put plainly: affinity purification with mass spectrometry; GFP and Flag IP (control IgG IP) from extract of the GFP::3xFLAG::NMAD-1 strain, mixed stage worms; high-salt buffer (20 mM HEPES pH 7.0, 200 mM NaCl), Protein A Dynabeads, 3 h at 4 °C.
As to “CEH-93 (endogenous) (from UniProt Q86DC2)”, the binding entry is on record as “binds”.
As for “F37C4.5 (endogenous) (from UniProt O44400)”, the binding result is reported as “binds”.
The entry for “TOP-2 (endogenous) (from UniProt Q23670 1-1520) (enzyme)” is “binds”.

For the origin of these results see PMC6638966, “The demethylase NMAD-1 regulates DNA replication and repair in the Caenorhabditis elegans germline” (PLoS Genetics, 2019).
